Drawing on PMC11237401, this text covers binding for two molecules.

Holding throughout (assay): two-hybrid; bacterial adenylate cyclase-based two-hybrid (BACTH) in E. coli BTH101; bait on pKT25, prey on pUT18; grown at 30°C with 0.5 mM IPTG; β-galactosidase activity by Miller assay
For one assay, the target named is Gp104.
The target in assay [1] is Gp11^G36R (S. aureus phage ΦNM1).
Assay [2] addresses Gp11^S33L (S. aureus phage ΦNM1).
Assay [3] deals with Gp11 (S. aureus phage ΦNM1).
Assay [4] deals with Gp11^A38E (S. aureus phage ΦNM1).

Results are given in words; binding and its absence hold for the method and conditions named. For some assays here: A result given as binding can be weak or reduced; the word gives no strength.

B1: DnaI (protein, UniProt Q3ZUA6 1-306)
chain: MKQFKSIINTSQDFEKRIEKIKKEVINDPDVKQFLEAHRAELTNAMIDEDLNVLQEYKDQQKHYDGHKFADCPNFVKGHVPELYVDNNRIKIRYLQCPCKIKYDEERFEAELITSHHMQRDTLNAKLKDIYMNHRDRLDVAMAADDICTAITNGEQVKGLYLYGPFGTGKSFILGAIANQLKSKKVRSTIIYLPEFIRTLKGGFKDGSFEKKLHRVREANILMLDDIGAEEVTPWVRDEVIGPLLHYRMVHELPTFFSSNFDYSELEHHLAMTRDGEEKTKAARIIERVKSLSTPYFLSGENFRNN
For B1, the binding entry in the assay with Gp104 is given as “binds”.

B2: MurG (enzyme, UniProt Q2FYL5 1-356)
chain: MTKIAFTGGGTVGHVSVNLSLIPTALSQGYEALYIGSKNGIEREMIESQLPEIKYYPISSGKLRRYISLENAKDVFKVLKGILDARKVLKKEKPDLLFSKGGFVSVPVVIAAKSLNIPTIIHESDLTPGLANKIALKFAKKIYTTFEETLNYLPKEKADFIGATIREDLKNGNAHNGYQLTGFNENKKVLLVMGGSLGSKKLNSIIRENLDALLQQYQVIHLTGKGLKDAQVKKSGYIQYEFVKEDLTDLLAITDTVISRAGSNAIYEFLTLRIPMLLVPLGLDQSRGDQIDNANHFADKGYAKAIDEEQLTAQILLQELNEMEQERTRIINNMKSYEQSYTKEALFDKMIKDALN
With B2, the binding entry in assay [1] was “no binding”; in assay [2] it was “binds”; in assay [3], “binds”; in assay [4] it was “no binding”.
